PubChem BioAssay AID2685 (National Center for Advancing Translational Sciences (NCATS), 2010)
The list shows a part of the results. Further columns of the screen follow, without active or inactive calls. Compounds called inactive in the main read-out are mostly missing here. Words in brackets tell the shape of the fitted curve; partial curves, single points and poor fits give uncertain potencies.

Test: qHTS Assay for Lipid Storage Modulators in Drosophila S3 Cells;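 as to cell number change: cells counted by Cell Tracker Red CMTPX staining in the red channel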
Conditions: BODIPY lipid droplet fluorescence, 18-24 h; for cell number change: measured here: cell count max response, cells fed with added oleic acid
In short: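 Laser-scanning cytometry quantifies lipid droplet accumulation (500–530 nm total intensity; droplet/cell object ratio) in oleic acid-fed (400 uM added) Drosophila S3 cells treated with a concentration series. 20 uM Triacsin C defined 100% inhibition.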

[1] = measured here: cell number channel AC50, cells fed with added oleic acid
[2] = measured here: lipid fluorescence (Fed channel) AC50, cells fed with added oleic acid

SMILES	cell number change [%]	AC50 [1]	AC50 [2]
CC(C)c1ccc(NC(=O)CSc2nc(-c3ccccc3F)nc3nc[nH]c23)cc1	-43.2	2.59 µM [falling, partial curve, poor fit]	
CC1(C)Cc2c(ccc3ccccc23)C2=C(C(=O)N3CCCC3)C(=O)C(=O)N21	-10.4	0.0259 µM [falling, full curve, poor fit]	
Cc1cc(C(=O)COC(=O)CN(C)S(=O)(=O)c2ccc(Cl)cc2)c(C)n1CC1CCCO1 (stereo unspecified)	23.3	0.00461 µM [rising, full curve, poor fit]	
O=C(c1ccco1)N1N=C(c2ccc(Br)cc2)CC1(O)C(F)(F)F (stereo unspecified)	-34.2	29.1 µM [falling, single point]	18.4 µM [falling, single point]
COc1cc(/C=N\Nc2cc(=O)n(C)c(=O)n2C)ccc1O	10		20.6 µM [rising, partial curve]
CC(C)NC(=O)CCN1C(=O)c2ccccc2Sc2ncccc21	-17.6		
CCCOC(=O)C1=C(C)NC(=O)NC1c1cc2c(cc1Br)OCO2 (stereo unspecified)	-30.7		
Cc1cc2ccccn2c1C(=O)Nc1ccccc1	-27.4		
COc1ccc(NC2CCCN(C(=O)c3ccc(C(C)=O)s3)C2)cc1 (stereo unspecified)	-9.85	0.00461 µM [falling, full curve, poor fit]	
CC(=O)Nc1ccc(S(=O)(=O)N2CCN=C2C)cc1			1.3 µM [falling, full curve, poor fit]
COc1ccc(C(=O)NCC(=O)N/N=C/c2ccco2)cc1OC	25.7		
CSc1ncc(C(=O)O)n1-c1ccc(F)cc1	-148	25.9 µM [falling, partial curve]	5.8 µM [falling, partial curve]
N#Cc1cc([N+](=O)[O-])ccc1Oc1cccc(/C=N/NC(=O)c2cccc(Cl)c2)c1	19.3		3.66 µM [rising, partial curve]
CCOC(=O)CSc1nnc(CNc2ccccc2Cl)n1-c1ccccc1	4.78		5.8 µM [falling, full curve]
CN(C(=O)CCc1nc(-c2ccccc2F)no1)c1ccccc1		6.51 µM [rising, partial curve, poor fit]	6.51 µM [rising, partial curve, poor fit]
COc1cccc(OC)c1NC(=O)Cc1nn(C)c(=O)c2ccccc12	56.3	9.2 µM [rising, partial curve, poor fit]	18.4 µM [rising, partial curve]
Cc1ccc(NC(=O)C(C)Sc2nnc(C)n2C)cc1 (stereo unspecified)	-37.2	5.17 µM [falling, partial curve]	7.31 µM [falling, partial curve]
Cc1ccccc1Nc1nnc(SCc2nc3ccccc3c(=O)[nH]2)s1	-25.2		3.26 µM [falling, full curve]
Clc1cccc(Cl)c1OCCOCCNCc1ccccc1	4.15		0.411 µM [rising, full curve, poor fit]
CCOC(=O)C1CCN(c2ncnc3c2oc2ccc(Cl)cc23)CC1	52.9	18.4 µM [rising, single point]	

SMILES	cell number change [%]	AC50 [1]	AC50 [2]
CN(C(=O)COC(=O)C1CSC2(C)CCC(=O)N12)c1ccccc1 (stereo unspecified)	-22.8		
COCC(=O)N(CCc1ccccc1)Cc1cc2cc(C)ccc2nc1Cl	12.8		
CC(=O)c1ccc2c3c(cccc13)C(=O)N(CCc1ccccc1)C2=O	8.78		0.517 µM [rising, partial curve, poor fit]
O=C(Cc1ccc(Cl)c(Cl)c1)N1CCOCC1	10		0.0326 µM [rising, full curve, poor fit]
Cc1ccc(CN2CCN(Cc3c(C)nn(C(C)C)c3C)CC2CCO)o1 (stereo unspecified)	-5.69		2.91 µM [falling, single point]
CC(NC(=O)Nn1cnnc1)(C(F)(F)F)C(F)(F)F	15.8		
CC(C)(C)c1ccc(C(=O)NCC(=O)OCC(=O)Nc2ccccc2[N+](=O)[O-])cc1	36.5	14.6 µM [rising, single point]	
CCCCc1cc(=O)oc2cc(OCC(=O)N(CC)CC)ccc12	-24.2		
O=C(NCC1CCCO1)/C(=C\c1cccc([N+](=O)[O-])c1)NC(=O)c1ccccc1 (stereo unspecified)	15.7		6.51 µM [falling, single point]
O=S1(=O)C=C(Sc2nnc(-c3ccccc3)o2)c2ccccc21	-81.3	6.51 µM [falling, partial curve]	4.11 µM [falling, full curve]
Cc1cccc2nc(CSc3nnc(N)s3)cn12	-1.06	5.17 µM [falling, single point]	4.11 µM [falling, single point]
O=C1C2Sc3[nH]c(=O)sc3C(c3cc([N+](=O)[O-])ccc3O)C2C(=O)N1c1ccccc1 (stereo unspecified)	-18.9		0.291 µM [falling, full curve, poor fit]
COC(=O)CSc1nnc(-c2ccc(S(=O)(=O)N3CCC(C)CC3)cc2)o1	1.12		
Cc1ccc(S(=O)(=O)NCCOc2nc(N(C)C)nc(N3CCOCC3)n2)cc1			0.291 µM [falling, partial curve, poor fit]
COC(=O)Cn1cnc2c(cnn2-c2ccc(OC)cc2)c1=O	-12.6		
O=C(CN1C(=O)CSc2ccccc21)N/N=C/c1ccco1	41.3	11.6 µM [rising, partial curve]	
CC(=O)Nc1cccc(S(C)(=O)=O)c1	34.8	11.6 µM [rising, partial curve]	11.6 µM [rising, partial curve, poor fit]
C/C(=N\OCC(=O)Nc1ccccc1Br)c1cccs1	66.3	5.8 µM [rising, full curve, poor fit]	
O=C(COc1ccccc1[N+](=O)[O-])N1CCN(S(=O)(=O)c2ccccc2)CC1	-13.4		6.51 µM [falling, single point]
Cc1ccccc1OCc1nnc(SCC(=O)Nc2c(C)n(C)n(-c3ccccc3)c2=O)n1-c1ccccc1	10.5	0.82 µM [falling, single point]	1.16 µM [falling, single point]

Some of the entries so far, as a markdown table.

| SMILES | cell number change [%] | AC50 [1] | AC50 [2] |
| --- | --- | --- | --- |
| CN(C(=O)COC(=O)C1CSC2(C)CCC(=O)N12)c1ccccc1 (stereo unspecified) | -22.8 |  |  |
| CC(=O)c1ccc2c3c(cccc13)C(=O)N(CCc1ccccc1)C2=O | 8.78 |  | 0.517 µM [rising, partial curve, poor fit] |
| CC(NC(=O)Nn1cnnc1)(C(F)(F)F)C(F)(F)F | 15.8 |  |  |
| CCCCc1cc(=O)oc2cc(OCC(=O)N(CC)CC)ccc12 | -24.2 |  |  |
| O=C(NCC1CCCO1)/C(=C\c1cccc([N+](=O)[O-])c1)NC(=O)c1ccccc1 (stereo unspecified) | 15.7 |  | 6.51 µM [falling, single point] |
| COC(=O)CSc1nnc(-c2ccc(S(=O)(=O)N3CCC(C)CC3)cc2)o1 | 1.12 |  |  |
| COC(=O)Cn1cnc2c(cnn2-c2ccc(OC)cc2)c1=O | -12.6 |  |  |
| O=C(CN1C(=O)CSc2ccccc21)N/N=C/c1ccco1 | 41.3 | 11.6 µM [rising, partial curve] |  |
| CC(=O)Nc1cccc(S(C)(=O)=O)c1 | 34.8 | 11.6 µM [rising, partial curve] | 11.6 µM [rising, partial curve, poor fit] |
| C/C(=N\OCC(=O)Nc1ccccc1Br)c1cccs1 | 66.3 | 5.8 µM [rising, full curve, poor fit] |  |
| O=C(COc1ccccc1[N+](=O)[O-])N1CCN(S(=O)(=O)c2ccccc2)CC1 | -13.4 |  | 6.51 µM [falling, single point] |
| Cc1ccccc1OCc1nnc(SCC(=O)Nc2c(C)n(C)n(-c3ccccc3)c2=O)n1-c1ccccc1 | 10.5 | 0.82 µM [falling, single point] | 1.16 µM [falling, single point] |

The results go on.

SMILES	cell number change [%]	AC50 [1]	AC50 [2]
COc1ccc(-n2cc(C(=O)c3ccc4ccccc4c3O)cn2)cc1			0.82 µM [rising, single point]
Cc1ccccc1C(=O)OC1OC(=O)C(Cl)=C1Nc1ccc(C(=O)O)cc1 (stereo unspecified)	-28.5		
O=C(c1cc2cc([N+](=O)[O-])ccc2oc1=O)n1cccn1	-47.5	3.26 µM [falling, partial curve]	2.06 µM [falling, partial curve]
C=CC(COCc1ccccc1)N(Cc1ccccc1)S(=O)(=O)c1ccccc1Br (stereo unspecified)	18.6		0.0291 µM [rising, full curve, poor fit]
COc1cc2c(cc1OC)C(C)N(C(=O)c1sccc1C)CC2 (stereo unspecified)	7.37		20.6 µM [rising, single point]
CCOc1ccc(-c2cc(N)n(S(=O)(=O)c3ccc(OC)cc3)n2)cc1	-4.35		
C=CCn1c(SCCOc2ccc(OC)cc2)nnc1C(C)NC(=O)c1ccc(OC)cc1 (stereo unspecified)	-25.9	0.82 µM [falling, full curve, poor fit]	
COc1cc(C(=O)/C=C/c2cccnc2)c([N+](=O)[O-])cc1OC	-51.9	29.1 µM [falling, partial curve]	32.6 µM [rising, single point]
O=C(COC(=O)Cc1cccs1)Nc1ccc(F)c(F)c1F	-21.5	0.13 µM [falling, full curve, poor fit]	1.46 µM [falling, partial curve]
O=C(CC1C(=O)NCCN1Cc1ccccc1F)NC1CCCCCC1 (stereo unspecified)	-4.11		18.4 µM [falling, single point]
CCC1CCCCN1CC(C)(C)NS(=O)(=O)c1ccccc1 (stereo unspecified)	-0.585	0.461 µM [falling, single point]	
COc1ccccc1-c1cc(C(F)(F)F)nc(N2CCCC2)n1	-24.7		29.1 µM [falling, single point]
Cc1ccc(OCCNS(=O)(=O)c2ccc(N3CCCC3=O)cc2)cc1	-25.9		32.6 µM [falling, single point]
CN1C(C(=O)Nc2ccc(OC(F)(F)F)cc2)=CC(c2ccco2)=NS1(=O)=O	-69	29.1 µM [falling, single point]	29.1 µM [falling, single point]
COc1ccccc1OCc1ccc(C(=O)NN)cc1	108	2.06 µM [rising, partial curve, poor fit]	2.59 µM [rising, partial curve]
COc1ccc(NC(=O)c2ccc3ccccc3n2)cc1S(=O)(=O)Nc1ccccc1Cl	-21.6		0.92 µM [rising, partial curve]
COc1ccc(C(=O)NNC(=O)CSc2nnc(COc3ccccc3)n2C)cc1	-12.2	0.58 µM [falling, partial curve, poor fit]	
CCOC(=O)CSc1nnc(NC(=O)c2cccc(S(=O)(=O)N3CCCC3)c2)s1	-184	23.1 µM [falling, partial curve]	6.51 µM [falling, single point]
COC(=O)C1=C(C(=O)OC)SC2(S1)C(C(=O)OC)=C(C(=O)OC)SC1=C2c2cc(C)cc(C)c2NC1(C)C	-10.4		
